The target of the test is recombinant wild-type (wt) human kallikrein 2 (human) (UniProt P20151). As to the kind of experiment: competition phage IFMA on hK2 captured by MAb 5E4; 5 µM synthetic peptide.

By UniProt entry, the sequences of proteins in these tests, tags left out. Residues count along the entry.
UniProt P20151, residues 25-261: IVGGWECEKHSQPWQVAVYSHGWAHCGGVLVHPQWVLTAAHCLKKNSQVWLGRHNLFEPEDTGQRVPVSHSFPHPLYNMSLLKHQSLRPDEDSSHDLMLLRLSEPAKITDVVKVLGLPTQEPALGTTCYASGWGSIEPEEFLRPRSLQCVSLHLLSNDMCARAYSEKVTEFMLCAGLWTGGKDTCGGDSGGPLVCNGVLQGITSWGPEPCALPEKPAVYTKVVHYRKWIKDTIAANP

These are yes or no findings as the source states them, for the method shown. Some binding calls cover weakened binding; strength is not graded here.

On to PARRPFPVTA [synthetic peptide HK2p03 (…)], for which the binding result was “binds”.
Next, AARRPFPAPS [synthetic peptide HK2p02 (…)]: “binds”.

The values above are taken from patent US20090214427A1, “Novel peptides” (Licentia OY, priority 2004, published 2009).
